Measurements: patent publication US8034787B2, “Enzyme-cleavable prodrug compounds” (Medarex, Inc., priority 1998, dated 2011)
Not every detail of the peptide structures is certain; ends, links or a residue may be inferred.

Chains of the proteins cited; added tags and fusions are not shown.
UniProt P24155, whole entry: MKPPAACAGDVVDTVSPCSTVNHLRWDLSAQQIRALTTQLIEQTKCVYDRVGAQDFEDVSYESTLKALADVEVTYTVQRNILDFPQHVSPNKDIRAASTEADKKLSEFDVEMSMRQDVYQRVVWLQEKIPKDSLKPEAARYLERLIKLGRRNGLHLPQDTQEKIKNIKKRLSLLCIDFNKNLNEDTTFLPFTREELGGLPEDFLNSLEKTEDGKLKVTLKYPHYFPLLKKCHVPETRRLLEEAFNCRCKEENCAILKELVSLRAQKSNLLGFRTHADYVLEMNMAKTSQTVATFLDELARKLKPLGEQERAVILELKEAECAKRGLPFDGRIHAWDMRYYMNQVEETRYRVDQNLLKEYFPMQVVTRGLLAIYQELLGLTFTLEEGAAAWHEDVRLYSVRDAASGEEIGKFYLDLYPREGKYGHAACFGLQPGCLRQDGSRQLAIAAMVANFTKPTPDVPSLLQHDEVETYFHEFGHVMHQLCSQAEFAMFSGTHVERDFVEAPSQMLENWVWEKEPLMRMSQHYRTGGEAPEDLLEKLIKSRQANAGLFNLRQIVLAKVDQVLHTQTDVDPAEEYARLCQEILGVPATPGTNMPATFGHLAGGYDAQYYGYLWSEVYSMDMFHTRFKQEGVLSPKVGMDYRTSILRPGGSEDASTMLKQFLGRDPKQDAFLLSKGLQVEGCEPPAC
UniProt P52888, whole entry: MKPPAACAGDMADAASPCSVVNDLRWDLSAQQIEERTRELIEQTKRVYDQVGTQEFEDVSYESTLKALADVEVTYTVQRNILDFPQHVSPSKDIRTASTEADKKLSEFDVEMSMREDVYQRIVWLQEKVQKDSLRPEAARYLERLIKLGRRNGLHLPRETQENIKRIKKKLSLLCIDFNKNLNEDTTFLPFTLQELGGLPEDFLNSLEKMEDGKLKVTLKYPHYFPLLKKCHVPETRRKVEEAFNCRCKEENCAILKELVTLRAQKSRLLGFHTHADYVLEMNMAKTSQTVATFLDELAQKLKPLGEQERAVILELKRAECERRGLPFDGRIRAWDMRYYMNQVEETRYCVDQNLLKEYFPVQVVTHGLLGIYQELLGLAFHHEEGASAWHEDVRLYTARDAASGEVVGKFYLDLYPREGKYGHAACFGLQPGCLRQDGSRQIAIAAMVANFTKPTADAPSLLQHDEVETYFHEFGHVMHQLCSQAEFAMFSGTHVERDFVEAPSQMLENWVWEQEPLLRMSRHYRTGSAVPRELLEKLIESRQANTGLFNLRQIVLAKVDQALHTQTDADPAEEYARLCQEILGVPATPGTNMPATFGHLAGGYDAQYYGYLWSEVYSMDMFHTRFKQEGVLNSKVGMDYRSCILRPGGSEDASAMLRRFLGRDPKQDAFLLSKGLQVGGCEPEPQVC

Key:
[1] = molecular target: T1, recombinant rat TOP (rRTOP) (Rattus norvegicus, UniProt P24155); test: Rates of hydrolysis by recombinant rat TOP; format: biochemical; conditions: 10 μg/mL substrate, pH 7.2 10 mM HEPES, 100 μM MnCl2, 37° C.; Suc-βAla-Leu-Ala-Leu-Dox = 1.0
T1 construct: made in house; host or cells: E. coli

[2] = test system: Porcine Kidney CD10; test: Hydrolysis by purified CD10; format: biochemical
[3] = test system: CXF280/10 colorectal carcinoma; test: CXF280/10 colorectal carcinoma nude mouse xenograft; format: in vivo, mice; conditions: CXF280/10 nude mouse xenograft
[4] = molecular target: T2, HeLa cell trouase (F1) (Homo sapiens, UniProt P52888); test: Rates of hydrolysis by partially purified HeLa cell trouase (F1); format: biochemical
T2 construct: The fractions containing the highest activity levels were pooled (fractions #43-46); host or cells: HeLa

[5] = test system: MCF-7/6 mammary tumor; test: MCF-7/6 mammary tumor nude mouse xenograft; format: in vivo, mice; conditions: MCF-7/6 nude mouse xenograft
[6] = 12.5 μg/mL, 37° C., pH 7.4, 10 hr

COc1cccc2c1C(=O)c1c(O)c3c(c(O)c1C2=O)C[C@@](O)(C(=O)CO)C[C@@H]3O[C@H]1C[C@H](NC(=O)[C@H](CC(C)C)NC(=O)[C@H](C)NC(=O)[C@H](CC(C)C)NC(=O)CCNC(=O)CCC(=O)O)[C@H](O)[C@H](C)O1 [Suc-βAla-Leu-Ala-Leu-Dox, succinyl-β-Ala-Leu-Ala-Leu-Dox]
Rate of hydrolysis TOP [1]: 1.0 | % hydrolysis/10 hr [2, 6]: 10.9% | Fraction hydrolyzed relative to standard [2, 6]: 1.0 | cleavage by CD10 ([2]; cleavage between Ala and Leu (AA2 and AA1)): substrate for CD10 | inhibiting the growth of human tumors [3]: efficacious | Rate of hydrolysis (F1) ([4]; 10 μg/mL substrate, pH 7.2 10 mM HEPES, 100 μM MnCl2, 37° C., Suc-βAla-Leu-Ala-Leu-Dox = 1.0): 1.0 | rate of cleavage relative to Suc-βAla-Ile-Ala-Leu-Dox ([4]; TOP and human carcinoma cell trouase): approximately a twenty-fold faster rate | inhibiting the growth of human tumors [5]: efficacious
